Cleaved PARP after 72 h of treatment

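Human melanoma cells were exposed to two drugs together for 72 h in 1,536-well plates and read by automated microscopy after fixing and staining. Values are the share of nuclei positive for cleaved PARP as a percentage of the same share in the DMSO control: 100 is the control level, higher means more apoptosis. Concentrations were fixed for each drug; these are the higher of two levels. No replicate spread is given; individual values may be noisy. Basal and induced levels differ widely between cell lines.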
Only some of the drugs and lines screened are listed, without regard to their results.
A dash means that no value is listed here.

Drug key:
nilotinib (1 µM): Cc1cn(-c2cc(NC(=O)c3ccc(C)c(Nc4nccc(-c5cccnc5)n4)c3)cc(C(F)(F)F)c2)cn1
vismodegib (5 µM): CS(=O)(=O)c1ccc(C(=O)Nc2ccc(Cl)c(-c3ccccn3)c2)c(Cl)c1
GSK650394 (0.8 µM): O=C(O)c1ccc(-c2c[nH]c3ncc(-c4ccccc4)cc23)cc1C1CCCC1
bortezomib (0.005 µM): CC(C)C[C@H](NC(=O)[C@H](Cc1ccccc1)NC(=O)c1cnccn1)B(O)O
SNS-032 (0.05 µM): CC(C)(C)c1cnc(CSc2cnc(NC(=O)C3CCNCC3)s2)o1
PF-562271 (0.4 µM): CN(c1ncccc1CNc1nc(Nc2ccc3c(c2)CC(=O)N3)ncc1C(F)(F)F)S(C)(=O)=O
MK-1775 (0.1 µM): C=CCn1c(=O)c2cnc(Nc3ccc(N4CCN(C)CC4)cc3)nc2n1-c1cccc(C(C)(C)O)n1
temozolomide (10 µM): Cn1nnc2c(C(N)=O)ncn2c1=O

Drugs,COLO 829,UACC-257,SK-MEL-28,SK-MEL-5,A375,WM3619
MK-1775 + SNS-032,127,66.6,166,273,-,227
vismodegib + bortezomib,5460,46.3,93.3,1010,59.2,2300
vismodegib + PF-562271,178,37.9,153,241,66.3,110
PF-562271 + bortezomib,4180,68.2,361,3290,93.0,3620
bortezomib + SNS-032,1900,81.7,233,5460,-,2210
GSK650394 + SNS-032,110,180,431,83.1,-,138
GSK650394 + MK-1775,117,82.2,190,222,-,154
vismodegib + nilotinib,71.3,20.4,126,88.5,75.5,91.5
temozolomide + SNS-032,61.3,87.6,228,64.5,-,146
PF-562271 + nilotinib,146,69.3,116,277,284,112
vismodegib + MK-1775,295,73.8,205,281,-,200
nilotinib + bortezomib,4030,176,140,3210,134,2140
PF-562271 + MK-1775,54.4,87.6,92.4,66.0,-,140
temozolomide + vismodegib,87.6,69.8,573,138,97.8,62.0
vismodegib + SNS-032,145,59.3,66.8,112,-,97.3
nilotinib + MK-1775,151,60.8,187,468,-,272
GSK650394 + bortezomib,653,78.1,662,5960,-,1650
nilotinib + temozolomide,96.3,108,143,112,76.1,119
SNS-032 + PF-562271,216,44.4,185,524,-,144
vismodegib + GSK650394,50.3,126,124,41.8,-,120
temozolomide + GSK650394,198,120,552,180,-,362
SNS-032 + nilotinib,46.5,119,297,125,-,107

Source: doi:10.1371/journal.pone.0140310, primary screening data, rounded.